From article doi:10.1101/2025.05.22.655611
No constants are given. Whether binding was seen depends on the method and setting. In cells and extracts the contact can be indirect. A yes stands for co-enrichment or nearness to the bait. Other partners may have been found. Sequences can lack the tags named with a protein.

Protein sequences, listed by entry. Tags and fused reporters are not part of them.
UniProt Q99PL5: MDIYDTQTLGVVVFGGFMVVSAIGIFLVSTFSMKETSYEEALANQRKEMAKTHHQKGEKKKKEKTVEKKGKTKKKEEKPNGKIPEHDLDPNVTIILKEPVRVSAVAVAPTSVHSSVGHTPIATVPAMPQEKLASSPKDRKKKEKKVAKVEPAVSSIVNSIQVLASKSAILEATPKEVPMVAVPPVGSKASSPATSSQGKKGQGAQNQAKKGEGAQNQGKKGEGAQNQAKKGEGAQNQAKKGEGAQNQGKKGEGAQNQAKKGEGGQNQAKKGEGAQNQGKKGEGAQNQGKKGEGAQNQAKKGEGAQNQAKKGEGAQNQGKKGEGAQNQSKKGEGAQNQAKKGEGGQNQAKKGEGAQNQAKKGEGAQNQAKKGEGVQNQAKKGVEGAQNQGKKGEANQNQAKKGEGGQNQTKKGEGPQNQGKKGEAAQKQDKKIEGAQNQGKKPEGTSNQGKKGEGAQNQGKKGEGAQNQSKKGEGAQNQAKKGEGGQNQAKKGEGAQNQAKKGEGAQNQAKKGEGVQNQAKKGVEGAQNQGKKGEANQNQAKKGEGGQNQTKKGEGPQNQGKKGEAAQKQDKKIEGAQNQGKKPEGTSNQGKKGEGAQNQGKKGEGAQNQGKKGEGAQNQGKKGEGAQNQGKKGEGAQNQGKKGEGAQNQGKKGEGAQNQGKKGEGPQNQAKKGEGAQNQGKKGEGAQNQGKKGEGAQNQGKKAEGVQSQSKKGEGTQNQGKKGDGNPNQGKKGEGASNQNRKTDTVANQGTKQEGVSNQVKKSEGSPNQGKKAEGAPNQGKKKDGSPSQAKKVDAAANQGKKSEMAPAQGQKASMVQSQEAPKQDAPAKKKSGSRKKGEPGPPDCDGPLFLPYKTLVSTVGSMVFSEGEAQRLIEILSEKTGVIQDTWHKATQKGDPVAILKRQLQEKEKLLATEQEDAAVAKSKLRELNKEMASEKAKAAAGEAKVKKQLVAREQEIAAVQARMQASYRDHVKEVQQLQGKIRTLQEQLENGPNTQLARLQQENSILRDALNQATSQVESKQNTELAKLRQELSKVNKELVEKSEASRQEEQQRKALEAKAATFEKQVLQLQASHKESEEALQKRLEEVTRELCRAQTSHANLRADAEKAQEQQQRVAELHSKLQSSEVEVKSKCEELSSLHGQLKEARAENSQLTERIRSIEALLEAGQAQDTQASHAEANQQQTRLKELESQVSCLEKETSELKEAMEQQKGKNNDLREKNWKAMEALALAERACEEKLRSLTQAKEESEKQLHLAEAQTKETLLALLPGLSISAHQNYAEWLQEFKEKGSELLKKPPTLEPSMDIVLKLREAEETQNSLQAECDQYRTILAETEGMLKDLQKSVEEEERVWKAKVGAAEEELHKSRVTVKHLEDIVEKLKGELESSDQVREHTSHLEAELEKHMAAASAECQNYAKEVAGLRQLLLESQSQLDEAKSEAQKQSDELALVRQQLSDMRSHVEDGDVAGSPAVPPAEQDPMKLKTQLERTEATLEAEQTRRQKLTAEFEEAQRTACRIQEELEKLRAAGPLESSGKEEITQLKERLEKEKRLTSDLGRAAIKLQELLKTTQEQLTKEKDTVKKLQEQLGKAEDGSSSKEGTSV
UniProt Q8CHP5: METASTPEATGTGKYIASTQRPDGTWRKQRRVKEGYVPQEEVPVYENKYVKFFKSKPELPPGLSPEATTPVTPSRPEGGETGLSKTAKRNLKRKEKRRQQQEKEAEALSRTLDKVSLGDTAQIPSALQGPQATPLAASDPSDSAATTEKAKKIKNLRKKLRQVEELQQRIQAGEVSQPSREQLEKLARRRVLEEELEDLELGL
UniProt P52479: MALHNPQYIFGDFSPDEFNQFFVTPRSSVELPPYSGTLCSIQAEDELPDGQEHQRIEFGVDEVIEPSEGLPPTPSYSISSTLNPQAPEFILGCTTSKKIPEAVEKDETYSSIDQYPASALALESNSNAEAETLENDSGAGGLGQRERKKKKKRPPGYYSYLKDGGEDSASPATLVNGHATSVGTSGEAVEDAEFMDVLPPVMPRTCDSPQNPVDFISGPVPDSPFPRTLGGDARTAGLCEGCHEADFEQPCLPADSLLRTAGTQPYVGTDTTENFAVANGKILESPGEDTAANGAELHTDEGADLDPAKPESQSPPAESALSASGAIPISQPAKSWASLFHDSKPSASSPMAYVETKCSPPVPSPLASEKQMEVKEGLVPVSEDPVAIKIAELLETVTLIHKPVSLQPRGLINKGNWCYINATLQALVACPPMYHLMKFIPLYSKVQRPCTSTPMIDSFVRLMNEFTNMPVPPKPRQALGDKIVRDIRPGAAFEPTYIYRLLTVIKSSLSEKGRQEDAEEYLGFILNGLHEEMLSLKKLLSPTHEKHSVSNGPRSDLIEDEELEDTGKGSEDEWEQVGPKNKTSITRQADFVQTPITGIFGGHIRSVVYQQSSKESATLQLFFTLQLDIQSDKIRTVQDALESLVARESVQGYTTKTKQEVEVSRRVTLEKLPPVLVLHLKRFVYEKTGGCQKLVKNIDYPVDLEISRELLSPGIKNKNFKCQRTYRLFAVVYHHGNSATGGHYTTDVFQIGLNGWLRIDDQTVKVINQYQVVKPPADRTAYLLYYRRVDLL

T1: V5::TurboID::NES::eIF2A (N-terminal TurboID fusion of mouse eIF2A) (mouse) (UniProt Q8BJW6)
T1 sequence: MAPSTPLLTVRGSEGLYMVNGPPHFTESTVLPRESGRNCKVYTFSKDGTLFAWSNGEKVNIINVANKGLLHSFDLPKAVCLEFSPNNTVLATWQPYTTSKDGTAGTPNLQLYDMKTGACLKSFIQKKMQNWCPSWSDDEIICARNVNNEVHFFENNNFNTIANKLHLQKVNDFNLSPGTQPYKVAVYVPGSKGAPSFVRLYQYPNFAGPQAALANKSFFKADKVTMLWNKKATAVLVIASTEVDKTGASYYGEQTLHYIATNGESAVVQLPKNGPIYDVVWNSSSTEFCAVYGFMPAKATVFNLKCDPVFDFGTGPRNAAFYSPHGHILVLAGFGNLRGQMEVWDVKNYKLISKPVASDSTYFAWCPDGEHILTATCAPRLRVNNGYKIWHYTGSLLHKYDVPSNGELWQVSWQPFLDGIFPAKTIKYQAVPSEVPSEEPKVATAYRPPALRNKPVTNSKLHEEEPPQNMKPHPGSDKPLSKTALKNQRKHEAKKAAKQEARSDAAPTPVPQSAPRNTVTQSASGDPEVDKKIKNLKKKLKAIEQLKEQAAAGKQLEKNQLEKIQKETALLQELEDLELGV


target: T1, V5::TurboID::NES::eIF2A (N-terminal TurboID fusion of mouse eIF2A) (mouse); experiment: proximity labelling

Molecule | binding
RRBP1 (mouse, endogenous in SCC cells) (from UniProt Q99PL5 1-1605) | binds
PYM1 (mouse, endogenous in SCC cells) (from UniProt Q8CHP5 1-203) | binds
USP10 (mouse, endogenous in SCC cells) (from UniProt P52479 1-792) (enzyme) | binds
UBAP2L (mouse, endogenous in SCC cells) (protein, UniProt Q80X50 1-1107) MMTSVGTNRARGNWEQPQNQNQTQHKQRPQATAEQIRLAQMISDHNDADFEEKVKQLIDITGKNQDECVIALHDCNGDVNRAINVLLEGNPDTHSWEMVGKKKGVSGQKDGGQTESNEEGKENRDRDRDYSRRRGGPPRRGRGASRGREFRGQENGLDGTKSGGPSGRGTDRGRRGRGRGRGSSGRRGGRFSAQGMGTFNPADYAEPANTDDNYGNSSGNTWNNTGHFEPDDGTRLDFIGVEGSNYPRKFETAPGAWRTATEEWGTEDWNEDLSETKIFTASNVSSVPLPAENVTITAGQRIDLAVLLGKTPSSMENDSSNLDPSQAPSLAQPLVFSNSKQNAISQPASGSTFSHHSMVSMLGKGFGDVGEAKGGSTTGSQFLEQFKTAQALAQLAAQHSQSGSTTTSSWDMGSTTQSPSLVQYDLKSANDSTVHSPFTKRQAFTPSSTMMEVFLQEKPPAVATSTAAPPPPSSPLPSKSTSAPQMSPGSSDNQSSSPQPAQQKLKQQKKKTSLTSKIPALAVEMPGSADISGLNLQFGALQFGSEPVLSDYESTPTTSASSSQAPSSLYTSTASESSSTVSSNQSQESGYQSGPIQSTTYTSQNNAQGPLYEQRSTQTRRYPSSISSSPQKDLTQAKNGFSSVQATQLQTTQSVEGATGSAVKSESPSTSSIPSLNETVPAASLLTTANQHSSSLSGLSHTEEIPNTTTTQHSSALSTQQNTLSSSTSSGRTSTSTLLHTSVESEANLHSSSSTFSTTSSTVSAPPPVVSVSSSLNSGSSLGLSLGSNSTVTASTRSSVATTSGKAPPNLPPGVPPLLPNPYIMAPGLLHAYPPQVYGYDDLQMLQTRFPLDYYSIPFPTPTTPLTGRDGSLASNPYSGDLTKFGRGDASSPAPATTLAQPQQNQTQTHHTTQQTFLNPALPPGYSYTSLPYYTGVPGLPSTFQYGPAVFPVAPTSSKQHGVNVSVNASATPFQQPSGYGSHGYNTGVSVTSSNTGVPDISGSVYSKTQQSFEKQGFHSGTPAASFNLPSALGSGGPINPATAAAYPPAPFMHILTPHQQPHSQILHHHLQQDGQTGSGQRSQTSSIPQKPQTNKSAYNSYSWGAN | binds
UBAP2 (mouse, endogenous in SCC cells) (protein, UniProt Q91VX2 1-1132) MMTSVSNDRCRGAREKPQMPTAHAAQSQKQVVQATAEQMRLAQVIFDKNDSDFEAKVKQLMEVTGKNQDECIVALHDCNGDVNKAINILLEGNSDTTSWETVGGKKKNFGRESSENKENREKRTEREASRGRGTNNRKGRGGNRVREFKGEENGIDCSQGDKPAERGKRARGRGFGRGRGRGTGRFSAQSMGTFNPADYSESMSTDGCGTKLAVWEAAQNGTDEGPEGLAKSHSMSQEPPSKSSYGLKGAWKNSVEEWTTEDWTEDLSETKVFTASSAPAENHVTPGHSIDLVALLHKPAPPTQATEVNSFETSQQQGFGQALVFTNSQHNNQMAPGTANSTSASSYSPQSLSSVLGSGFGELPQSNMVNISNSQILDKLKPPGLSPFPAASSAQQNDTASPPATTAAWDLKPSAPQPSVLSRLDFKSQPEPSPVLSQLSQRQQHQTQAVSVPPPGLESFSSLAKPRESTAGDGPSTVSRLLQLPNMTVENIVSAHQPQPKHIKLPKRRVPPASKVPVSAVEMPGSSDVTGLNVQFGALEFGSEPSLSEFGSAASASENSNQIPISLYPKSLSEPLNASFPMTSAVQSSTYTTSVVTSSTLTSSALSSTSPVTTSSSYDQSSVHTRIAYQSSASPPDSAPGSVANGHGGGRSQHTVDTTSSVPAPKKTDPSALPSVSTLPGPASCTALLPSSAQHTATLPSLTPAAAELSSSPLSQLSSSLSGHQNSMTSAHATRSTSTPHTHASVESTASSAAFSAAATSAPSAPSSGVVLPGSMSTVSSLCLGGTTVSVPSSSTRATALVTSGKAPPNLPQGVPPLLHNQYLVGPGGLLPAYPIYGYDELQMLQSRLPMDYYGIPFAAPTALASRDGNLANNPYSGDVTKFGRGDSASPAPPTTPAQAQQSQSQTHHTAQQPFLNPGLPPGYSYTGLPYYTGVPSAFQYGPTMFVPPTSAKQHGVALSTPPTPFQQASGYGQHAYSTGYDDLTQGTAAGDYTKGGYGGSSQAPNKSTGSGPGKGVSVSSGTGLPDMTGSVYNKTQTFDKQGFHAGTPPPFSLPSALGSTGPLAPAAAPGYAPAPFLHIMPAHQQPHSQLLHHHLQQDAPSGSGQRSQPSSLQPKSQASKPTYGSAPYWTN | binds
G3BP2 (mouse, endogenous in SCC cells) (protein, UniProt P97379 1-482) MVMEKPSPLLVGREFVRQYYTLLNKAPEYLHRFYGRNSSYVHGGVDASGKPQEAVYGQNDIHHKVLSLNFSECHTKIRHVDAHATLSDGVVVQVMGLLSNSGQPERKFMQTFVLAPEGSVPNKFYVHNDMFRYEDEVFGDSEPELDEESEDEVEEEQEDRQPSPEPVQENANSAYYDAHPVTNGIEEPLEESSHEPEPEPESETKTEELKPQVEEKHLEELEEKSATPPPAEPASLPQEPPKAFSWASVTSKNLPPSGTVSSSGIPPHVKAPVSQPRVDAKPEVQSQPPRVREQRPRERPGFPPRGPRPGRGDMEQNDSDNRRIIRYPDSHQLFVGNLPHDIDENELKEFFMSFGNVVELRINTKGVGGKLPNFGFVVFDDSEPVQRILIAKPIMFRGEVRLNVEEKKTRAARERETRGGGDDRRDIRRNDRGPGGPRGIVGGGMMRDRDGRGPPPRGGMTQKLGSGRGTGQMEGRFTGQRR | binds
CAPRIN1 (mouse, endogenous in SCC cells) (protein, UniProt Q60865 1-707) MPSATSHSGSGSKSSGPPPPSGSSGSEAAAGAAAPASQHPATGTGAVQTEAMKQILGVIDKKLRNLEKKKGKLDDYQERMNKGERLNQDQLDAVSKYQEVTNNLEFAKELQRSFMALSQDIQKTIKKTARREQLMREEAEQKRLKTVLELQYVLDKLGDDDVRTDLKQGLSGVPILSEEELSLLDEFYKLVDPERDMSLRLNEQYEHASIHLWDLLEGKEKPVCGTTYKALKEIVERVFQSNYFDSTHNHQNGLCEEEEAASAPTVEDQVAEAEPEPAEEYTEQSEVESTEYVNRQFMAETQFSSGEKEQVDEWTVETVEVVNSLQQQPQAASPSVPEPHSLTPVAQSDPLVRRQRVQDLMAQMQGPYNFIQDSMLDFENQTLDPAIVSAQPMNPTQNMDMPQLVCPQVHSESRLAQSNQVPVQPEATQVPLVSSTSEGYTASQPLYQPSHATEQRPQKEPMDQIQATISLNTDQTTASSSLPAASQPQVFQAGTSKPLHSSGINVNAAPFQSMQTVFNMNAPVPPANEPETLKQQSQYQATYNQSFSSQPHQVEQTELQQDQLQTVVGTYHGSQDQPHQVPGNHQQPPQQNTGFPRSSQPYYNSRGVSRGGSRGARGLMNGYRGPANGFRGGYDGYRPSFSNTPNSGYSQSQFTAPRDYSGYQRDGYQQNFKRGSGQSGPRGAPRGRGGPPRPNRGMPQMNTQQVN | binds
SPATS2 (spermatogenesis-associated serine rich 2; mouse, endogenous in SCC cells) (protein, UniProt Q8K1N4 1-545) MSRKQSQKDSSGFIFDLQSNTVLAQGGTFENMKEKINAVRAIVPNKSNNEIILVLQHFDNCVDKTVQAFMEGSASEVLKEWIVTGKKKNKKKKSKPKPASEASGSAPDSSKSAPIQEEQPASSEKGSINGYHVNGAINDAESVDSLSEGLETLSIDARELEDPEFAAAETLDRTGSVLENGVSDFEPKSLTAHSISNVQQSRNAAKSLSRTTPGAQVSNLGMENVPLSSTNKKLGSNIEKSVKDLQRCTVSLARYRVVVKEEMDASIKKMKQAFAELQSCLMDREVALLAEMDKVKAEAMEILLSRQKKAELLKKMTDVAVRMSEEQLVELRADIKHFVSERKYDEDLGRVARFTCDVETLKQSIDSFGQVSHPKNSYSTRSRCSLVAPVSLSGPSDGSAASSSPDASVPSLPGANKRNCAPREASAAMTNSSDRPCQAHREVFPGNRRGGQGYRAQSQKTADPSNPGRHDSVGRYRNSSWYSSGPRYQGVPPQAPGNAGERSRPYSAGTNGTGAISEPSPPKPSFKKGLPQRKPRASQAEAANS | binds
SERBP1 (mouse, endogenous in SCC cells) (protein, UniProt Q9CY58 1-407) MPGHLQEGFGCVVTNRFDQLFDDESDPFEVLKAAENKKKEAGGGGVGGPGAKSAAQAAAQTNSNAAGKQLRKESQKDRKNPLPPSVGVADKKEETQPPVALKKEGIRRVGRRPDQQLQGDGKLIDRRAERRPPRERRFEKPLEEKGEGGEFSVDRPIIERPIRGRGGLGRGRGGRGRGMGRGDGFDSRGKREFDRHSGSDRSSFSHYSGLKHEDKRGGSGSHNWGTVKDELTESPKYIQKQISYNCSDLDQSNVTEETPEGEEHPVADTENKENEVEEVKEEGPKEMTLDEWKAIQNKDRAKVEFNIRKPNEGADGQWKKGFVLHKSKSEEAHAEDSVMDHHFRKPANDITSQLEINFGDLGRPGRGGRGGRGGRGRGGRPNRGSRTDKSSASAPDVDDPEAFPALA | binds
MTDH (metadherin; mouse, endogenous in SCC cells) (protein, UniProt Q80WJ7 1-579) MAARSWQDELAQQAEEGSARLRELLSVGLGFLRTELGLDLGLEPKRYPGWVILVGTGALGLLLLFLLGYGWAAACAGARKKRRSPPRKREEAAPPTPAPDDLAQLKNLRSEEQKKKNRKKLPEKPKPNGRTVEVPEDEVVRNPRSITAKQAPETDKKNEKSKKNKKKSKSDAKAVQNSSRHDGKEVDEGAWETKISHREKRQQRKRDKVLTDSGSLDSTIPGIENIITVTTEQLTTASFPVGSKKNKGDSHLNVQVSNFKSGKGDSTLQVSSRLNENLTVNGGGWSEKSVKLSSQLSEEKWNSVPPASAGKRKTEPSAWTQDTGDTNANGKDWGRNWSDRSIFSGIGSTAEPVSQSTTSDYQWDVSRNQPYIDDEWSGLNGLSSADPSSDWNAPAEEWGNWVDEDRASLLKSQEPISNDQKVSDDDKEKGEGALPTGKSKKKKKKKKKQGEDNSHTQDTEDLEKDTREELPVNTSKARPKQEKACSLKTMSTSDPAEVLIKNSQPVKTLPPAISAEPSITLSKGDSDNSSSQVPPMLQDTDKPKSNAKQNSVPPSQTKSETNWESPKQIKKKKKARRET | binds
